Assay results

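A cell-based luciferase reporter for ATXN2 expression, read by light output at 24 h, with a viability multiplex. Compounds were tested as a dilution series from about 0.0037 to 57 µM. The number is the fitted half-maximal inhibitory concentration (AC50); a lower value means a more potent inhibitor. Calls come from curve class and activity score: actives score 40–100, while inconclusive compounds (weak, partial, poorly fitted or single-point curves) score 1–39.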

Values are in µM. Every entry below has the call inconclusive. Only part of the assay is shown, chiefly results filed as inconclusive. Potencies fitted to partial, single-point or poorly fitting curves are rough. Some entries filed as inconclusive have a full curve. Activity scores are not listed here.

compound	fitted potency (µM)	curve
COc1cccc2c1cc([N+](=O)[O-])c1c(C(=O)O)cc3c(c12)OCO3	25.12	inhibitor, partial curve, poor fit
COc1ccc(/C=C/C(=O)Nc2cccc(F)c2)cc1S(=O)(=O)N1CCOCC1	7.08	inhibitor, partial curve, poor fit
Cc1ccc(-c2nc(N(C)C3CCN(C)CC3)c3ccccc3n2)cc1	25.12	inhibitor, partial curve, poor fit
Cc1cccc(N2CCN(C(=O)CC(NC(=O)c3ccccc3Cl)c3ccccc3)CC2)c1C (centres undefined)	17.78	inhibitor, partial curve
CCCCc1ccc(N/C(N)=N/c2nc(C)cc(C)n2)cc1	4.467	inhibitor, partial curve, poor fit
O=C(NN=Cc1ccccc1O)c1cccc([N+](=O)[O-])c1	3.162	inhibitor, full curve, poor fit
O=C(Nc1cccc(-c2cccc(Cl)c2)c1)C1CCN(Cc2ccccn2)CC1	17.78	inhibitor, partial curve, poor fit
CN1CCN(CCNC(=O)c2ccc3nc(-c4ccc(F)cc4)c(-c4ccc(F)cc4)nc3c2)CC1	28.18	inhibitor, partial curve, poor fit
CN(C)c1ccc(CNCCC(Cc2ccccc2)c2ccco2)cc1 (centres undefined)	25.12	inhibitor, partial curve, poor fit
COc1ccc(CN2CCCN(S(=O)(=O)c3ccc(Br)cc3)CC2)cc1	22.39	inhibitor, single point
CCCNC(=O)c1ccc2c(=O)c(O)c(-c3ccc(F)cc3)[nH]c2c1	28.18	inhibitor, single point
CCn1c(-c2ccc(C)cc2)nn(CC(=O)NCCc2ccccc2)c1=S	1.778	inhibitor, full curve
COc1ccc(C2CC(c3cccc(C(F)(F)F)c3)=NN2c2ccc(S(N)(=O)=O)cc2)cc1 (centres undefined)	2.818	inhibitor, partial curve
Cc1ccc(CN2CCC(c3nc4ccc(Cl)cc4[nH]3)CC2)cc1	17.78	inhibitor, single point
CCOC(=O)c1c(C)nn(-c2ccc(NC(=O)/C=C/C(=O)O)cc2)c1C	3.548	inhibitor, partial curve, poor fit
CCn1c(O)c(/C=N/NC(=O)c2ccccc2)c(=O)n(CC)c1=S	14.13	inhibitor, partial curve, poor fit
Cn1c(=O)c(C#N)c(-c2ccc(F)cc2)c2cc(C(=O)c3cc(Cl)cc(Cl)c3O)cnc21	3.548	inhibitor, single point
CCn1c(C)cc(C(=O)COC(=O)c2ccccc2[N+](=O)[O-])c1C	0.2239	inhibitor, full curve, poor fit
CCOC(=O)N1CCN(S(=O)(=O)c2ccc(C(=O)NNc3nc4c(C)cc(C)cc4s3)cc2)CC1	2.818	inhibitor, partial curve
Nc1ccn(C2OC(COP(=O)(O)O)C(O)C2O)c(=O)n1 (centres undefined)	10	inhibitor, partial curve
NNC(=O)c1nc(-c2ccccc2)cc(-c2ccccc2)n1	15.85	inhibitor, partial curve, poor fit
O=[N+]([O-])c1ccc(C(c2ccc([N+](=O)[O-])cc2)c2ccc([N+](=O)[O-])cc2)cc1	28.18	inhibitor, single point
C=CCc1cccc(/C=N/NC(=O)C(C)Nc2ccc(C)cc2)c1O (centres undefined)	10	inhibitor, partial curve, poor fit
Cc1cccn2c(=O)c(C(=O)NC3CC(C)CC(C)(C)C3)c(O)nc12 (centres undefined)	39.81	inhibitor, single point
CCN(CC)CCNc1ccc(CO)c2sc3ccccc3c(=O)c12	14.13	inhibitor, partial curve, poor fit
CCOC(=O)c1cnc(-n2nc(C)cc2C)nc1NC1CCCC1	1.995	inhibitor, partial curve
CN(Cc1ccccc1)C1=CC(=[N+]2CCCC2)CC(C)(C)C1	1	inhibitor, partial curve, poor fit
Cc1cc(C)c(C(=O)/C=C/c2ccc(C(C)C)cc2)c(=O)[nH]1	15.85	inhibitor, partial curve, poor fit
CCOC(=O)c1sc2nc(C)nc(SC(C)C(=O)N(C)c3ccccc3)c2c1C (centres undefined)	3.548	inhibitor, single point
O=C1c2cccc3cc([N+](=O)[O-])cc(c23)C(=O)N1CCN1CCCC1	1.413	inhibitor, full curve, poor fit
CCc1nc2ccc(C(=O)N(C)Cc3ccccc3)cn2c1N(C)Cc1ccc(OC)cc1	35.48	inhibitor, single point
Cc1nn2c(NCc3ccccn3)c3c(nc2c1-c1ccccc1)CCC3	3.548	inhibitor, full curve, poor fit
CN(C)CCCNc1nc2cc(-c3ccc(F)cc3)sc2c(=O)n1C	15.85	inhibitor, partial curve, poor fit
CC(Oc1ccc(Br)cc1)C(=O)Nc1nc(-c2ccccn2)cs1 (centres undefined)	2.818	inhibitor, partial curve
COCCCn1c(N)c(-c2nc3ccccc3n2C)c2nc3ccccc3nc21	19.95	inhibitor, single point
C=CCCC[C@@H]1OC(=O)CNC(=O)C([C@@H](C)CC)NC(=O)[C@@H]2CCCN2C(=O)C([C@@H](C)CC)OC(=O)[C@H](Cc2ccccc2)N(C)C(=O)[C@H](C(C)C)NC(=O)C1(C)C (some centres undefined)	4.467	inhibitor, single point
COc1ccc(CNC(=O)c2ccc(-c3cccnc3)c3ccoc23)cc1OC	19.95	inhibitor, partial curve, poor fit
CCC1(O)C(=O)OCc2c1cc1n(c2=O)Cc2cc3cc(O)ccc3nc2-1 (centres undefined)	0.1	inhibitor, full curve, poor fit
COc1cnc(-c2ccccn2)nc1Oc1c(C)cccc1C	31.62	inhibitor, partial curve, poor fit
COc1cc(/C=C/c2ccc(/C=C/c3cc(OC)c(OC)c(OC)c3)cc2)cc(OC)c1OC	28.18	inhibitor, partial curve, poor fit
CCN(CC)S(=O)(=O)c1ccc(C(=O)Nc2ccc(Cc3ccncc3)cc2)cc1	5.012	inhibitor, full curve
Cc1ccc(S(=O)(=O)/C(=C/Cl)NC(=O)c2ccccc2)cc1	17.78	inhibitor, partial curve, poor fit
OCCN1CCN(Cc2cc(Cl)c3cccnc3c2O)CC1	22.39	inhibitor, partial curve, poor fit
O=C(N/N=C/c1cc([N+](=O)[O-])ccc1O)c1cccc(N2CCCC2=O)c1	22.39	inhibitor, partial curve, poor fit
COc1ccc2sc(-c3ccc(SC)cc3)c(-c3ccc(O)cc3)c2c1	25.12	inhibitor, partial curve, poor fit
Cc1onc(-c2c(F)cccc2Cl)c1C(=O)Nc1nnc(C(F)(F)F)s1	7.08	inhibitor, single point
NC(=O)Cn1c(=O)n(CCc2ccccc2)c(=O)c2c3c(sc21)CCCC3	28.18	inhibitor, single point
CC[n+]1c(/C=C/N(C)c2ccccc2)oc2ccc(F)cc21	15.85	inhibitor, partial curve, poor fit

3 of the entries, repeated:

{"compound": "CCN(CC)S(=O)(=O)c1ccc(C(=O)Nc2ccc(Cc3ccncc3)cc2)cc1", "fitted potency (µM)": "5.012", "curve": "inhibitor, full curve"}
{"compound": "CCOC(=O)N1CCN(S(=O)(=O)c2ccc(C(=O)NNc3nc4c(C)cc(C)cc4s3)cc2)CC1", "fitted potency (µM)": "2.818", "curve": "inhibitor, partial curve"}
{"compound": "NC(=O)Cn1c(=O)n(CCc2ccccc2)c(=O)c2c3c(sc21)CCCC3", "fitted potency (µM)": "28.18", "curve": "inhibitor, single point"}

The results are deposited in PubChem (AID1745848; NCATS, 2022).